## Results from one PubChem assay

Source: PubChem BioAssay AID912 (NCATS, 2007).

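A cell-based FRET test of anthrax lethal toxin entry, tracked through the 460 nm emission signal; the cell line is not named here. Each compound was tested as a concentration series from about 0.0005 to 40 µM. The number is the fitted AC50 of the 460 nm signal alone; lower values mean a more potent effect. A falling signal goes with compounds filed as inhibitors or cytotoxic, a rising one with activators or fluorescent compounds (inferred from the filed classes).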

Values are in nM. Common to all entries: measured here: 460 nm channel. This is a side read-out of the assay, for part of the compounds, not drawn at random. A potency from a partial, single-point or poor curve is only a rough figure. The first word of each remark tells which way the curve ran; it can be opposite to the aim of the assay.

{"structure": "COc1ccc(C(=O)N2CCC3(CCN(Cc4ccncc4)CC3)CC2)cc1", "AC50 (nM)": "631", "curve as filed": "falling, full curve"}
{"structure": "CN1CCN(CCC=C2c3ccccc3Sc3ccc(S(=O)(=O)N(C)C)cc32)CC1", "AC50 (nM)": "31622", "curve as filed": "falling, single point"}
{"structure": "CCC(C)[C@@H](NC(=O)OC(C)(C)C)c1nnc(S(=O)(=O)Cc2cccc(C)c2)o1", "stereo": "stereo not given in full", "AC50 (nM)": "31622", "curve as filed": "falling, single point"}
{"structure": "C[C@@H](Cc1ccc(Cl)cc1Cl)NO", "AC50 (nM)": "50.12", "curve as filed": "falling, full curve, poor fit"}
{"structure": "CCOC(=O)C(NC(=O)CC)(Nc1ccc(S(=O)(=O)Nc2ncccn2)cc1)C(F)(F)F", "stereo": "stereo not given", "AC50 (nM)": "5012", "curve as filed": "rising, single point"}
{"structure": "O[C@H]1CCCC[C@H]1N1CCC(c2ccccc2)CC1", "AC50 (nM)": "12589", "curve as filed": "falling, partial curve, poor fit"}
{"structure": "Cc1ccc2c(c1)c1c3n2CCN(C(=O)C2CC2)C3CCC1", "stereo": "stereo not given", "AC50 (nM)": "12589", "curve as filed": "falling, single point"}
{"structure": "Clc1cccc(-c2nc3nc4ccccc4nc3n2Cc2ccco2)c1", "AC50 (nM)": "10000", "curve as filed": "rising, partial curve"}
{"structure": "O=C1C2C3C=CC(C3=C3CCCCC3)C2C(=O)N1Cc1ccccc1", "stereo": "stereo not given", "AC50 (nM)": "1995", "curve as filed": "falling, partial curve, poor fit"}
{"structure": "CC(C)n1c(NCc2cc(Cl)ccc2O)nc2ccccc21", "AC50 (nM)": "12589", "curve as filed": "falling, single point"}
{"structure": "COc1cc(NC(=O)CN2C(=O)c3ccccc3S2(=O)=O)c(OC)cc1Cl", "AC50 (nM)": "1259", "curve as filed": "falling, partial curve"}
{"structure": "CCOc1ccc(-n2c(Cc3cc(=O)[nH]c(=O)[nH]3)nnc2SC(C)C)cc1", "AC50 (nM)": "31622", "curve as filed": "rising, single point"}
{"structure": "Cc1nc2nc(SCC(=O)N3CCOCC3)nn2c(C)c1Cc1c(F)cccc1Cl", "AC50 (nM)": "10000", "curve as filed": "rising, partial curve"}
{"structure": "COc1ccc(C[C@@H]2C(=O)N[C@H](C)C(=O)N(C)[C@@H]3Cc4ccc(cc4)Oc4cc(ccc4O)C[C@H](C(=O)N[C@@H](C)C(=O)N[C@H](C)C(=O)N2C)N(C)C3=O)cc1", "AC50 (nM)": "199.5", "curve as filed": "falling, full curve"}
{"structure": "Cc1ccc(C(C(=O)NC2CCCC2)N(Cc2ccco2)C(=O)CCC(=O)Nc2ccccn2)cc1", "stereo": "stereo not given", "AC50 (nM)": "10000", "curve as filed": "rising, partial curve"}
{"structure": "O=C(CCC(=O)Nc1nnc(C2CCCCC2)s1)NCc1cccs1", "AC50 (nM)": "1995", "curve as filed": "rising, full curve, poor fit"}
{"structure": "O=c1c(-c2ccc(O)cc2)coc2cc(O)cc(O)c12", "AC50 (nM)": "12589", "curve as filed": "falling, single point"}
{"structure": "c1ccc(C(Cc2nc(-c3ccccn3)no2)c2ccccc2)cc1", "AC50 (nM)": "12589", "curve as filed": "falling, single point"}
{"structure": "CCn1c(SCC(=O)Nc2ccc(Cl)cc2)nnc1C1CC1", "AC50 (nM)": "7943", "curve as filed": "falling, partial curve, poor fit"}
{"structure": "CC(C)N(C(=O)NC(=O)NCC1CCCO1)S(C)(=O)=O", "stereo": "stereo not given", "AC50 (nM)": "398.1", "curve as filed": "falling, full curve, poor fit"}
{"structure": "COc1ccc(-n2c(C)cc(C(=O)CSc3nnc(-c4cccs4)o3)c2C)cc1", "AC50 (nM)": "2512", "curve as filed": "rising, full curve"}
{"structure": "O=C(c1cnc(N2CCN(c3ncccn3)CC2)c2ccccc12)N1CCN(c2ccccn2)CC1", "AC50 (nM)": "12589", "curve as filed": "falling, partial curve"}
{"structure": "COc1ccc(OCC(O)Cn2c(=N)n(CCN3CCOCC3)c3ccccc32)cc1", "stereo": "stereo not given", "AC50 (nM)": "100", "curve as filed": "falling, partial curve"}
{"structure": "CCN(CC(=O)Nc1ccc2c(c1)OCCO2)Cc1cc(=O)oc2cc(C)c(C)cc12", "AC50 (nM)": "10000", "curve as filed": "rising, partial curve"}
{"structure": "CCNc1nc(Oc2ccc(C(=O)OCC)cc2)nc(SC)n1", "AC50 (nM)": "31622", "curve as filed": "falling, single point"}
{"structure": "Cc1[nH]n2c(=O)c3c(nc2c1-c1ccccc1)CCCC3", "AC50 (nM)": "39.81", "curve as filed": "rising, full curve, poor fit"}